# Measurements: article PMC12757297
# Chains of the proteins cited; added tags and fusions are not shown.
# UniProt Q07955: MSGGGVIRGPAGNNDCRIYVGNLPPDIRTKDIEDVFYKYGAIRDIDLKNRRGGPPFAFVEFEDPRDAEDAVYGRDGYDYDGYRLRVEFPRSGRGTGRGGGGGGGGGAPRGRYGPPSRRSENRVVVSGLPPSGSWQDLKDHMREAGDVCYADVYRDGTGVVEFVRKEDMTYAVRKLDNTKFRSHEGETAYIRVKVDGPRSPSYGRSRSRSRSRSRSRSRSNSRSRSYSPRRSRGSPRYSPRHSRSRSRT
# UniProt Q9UQ35: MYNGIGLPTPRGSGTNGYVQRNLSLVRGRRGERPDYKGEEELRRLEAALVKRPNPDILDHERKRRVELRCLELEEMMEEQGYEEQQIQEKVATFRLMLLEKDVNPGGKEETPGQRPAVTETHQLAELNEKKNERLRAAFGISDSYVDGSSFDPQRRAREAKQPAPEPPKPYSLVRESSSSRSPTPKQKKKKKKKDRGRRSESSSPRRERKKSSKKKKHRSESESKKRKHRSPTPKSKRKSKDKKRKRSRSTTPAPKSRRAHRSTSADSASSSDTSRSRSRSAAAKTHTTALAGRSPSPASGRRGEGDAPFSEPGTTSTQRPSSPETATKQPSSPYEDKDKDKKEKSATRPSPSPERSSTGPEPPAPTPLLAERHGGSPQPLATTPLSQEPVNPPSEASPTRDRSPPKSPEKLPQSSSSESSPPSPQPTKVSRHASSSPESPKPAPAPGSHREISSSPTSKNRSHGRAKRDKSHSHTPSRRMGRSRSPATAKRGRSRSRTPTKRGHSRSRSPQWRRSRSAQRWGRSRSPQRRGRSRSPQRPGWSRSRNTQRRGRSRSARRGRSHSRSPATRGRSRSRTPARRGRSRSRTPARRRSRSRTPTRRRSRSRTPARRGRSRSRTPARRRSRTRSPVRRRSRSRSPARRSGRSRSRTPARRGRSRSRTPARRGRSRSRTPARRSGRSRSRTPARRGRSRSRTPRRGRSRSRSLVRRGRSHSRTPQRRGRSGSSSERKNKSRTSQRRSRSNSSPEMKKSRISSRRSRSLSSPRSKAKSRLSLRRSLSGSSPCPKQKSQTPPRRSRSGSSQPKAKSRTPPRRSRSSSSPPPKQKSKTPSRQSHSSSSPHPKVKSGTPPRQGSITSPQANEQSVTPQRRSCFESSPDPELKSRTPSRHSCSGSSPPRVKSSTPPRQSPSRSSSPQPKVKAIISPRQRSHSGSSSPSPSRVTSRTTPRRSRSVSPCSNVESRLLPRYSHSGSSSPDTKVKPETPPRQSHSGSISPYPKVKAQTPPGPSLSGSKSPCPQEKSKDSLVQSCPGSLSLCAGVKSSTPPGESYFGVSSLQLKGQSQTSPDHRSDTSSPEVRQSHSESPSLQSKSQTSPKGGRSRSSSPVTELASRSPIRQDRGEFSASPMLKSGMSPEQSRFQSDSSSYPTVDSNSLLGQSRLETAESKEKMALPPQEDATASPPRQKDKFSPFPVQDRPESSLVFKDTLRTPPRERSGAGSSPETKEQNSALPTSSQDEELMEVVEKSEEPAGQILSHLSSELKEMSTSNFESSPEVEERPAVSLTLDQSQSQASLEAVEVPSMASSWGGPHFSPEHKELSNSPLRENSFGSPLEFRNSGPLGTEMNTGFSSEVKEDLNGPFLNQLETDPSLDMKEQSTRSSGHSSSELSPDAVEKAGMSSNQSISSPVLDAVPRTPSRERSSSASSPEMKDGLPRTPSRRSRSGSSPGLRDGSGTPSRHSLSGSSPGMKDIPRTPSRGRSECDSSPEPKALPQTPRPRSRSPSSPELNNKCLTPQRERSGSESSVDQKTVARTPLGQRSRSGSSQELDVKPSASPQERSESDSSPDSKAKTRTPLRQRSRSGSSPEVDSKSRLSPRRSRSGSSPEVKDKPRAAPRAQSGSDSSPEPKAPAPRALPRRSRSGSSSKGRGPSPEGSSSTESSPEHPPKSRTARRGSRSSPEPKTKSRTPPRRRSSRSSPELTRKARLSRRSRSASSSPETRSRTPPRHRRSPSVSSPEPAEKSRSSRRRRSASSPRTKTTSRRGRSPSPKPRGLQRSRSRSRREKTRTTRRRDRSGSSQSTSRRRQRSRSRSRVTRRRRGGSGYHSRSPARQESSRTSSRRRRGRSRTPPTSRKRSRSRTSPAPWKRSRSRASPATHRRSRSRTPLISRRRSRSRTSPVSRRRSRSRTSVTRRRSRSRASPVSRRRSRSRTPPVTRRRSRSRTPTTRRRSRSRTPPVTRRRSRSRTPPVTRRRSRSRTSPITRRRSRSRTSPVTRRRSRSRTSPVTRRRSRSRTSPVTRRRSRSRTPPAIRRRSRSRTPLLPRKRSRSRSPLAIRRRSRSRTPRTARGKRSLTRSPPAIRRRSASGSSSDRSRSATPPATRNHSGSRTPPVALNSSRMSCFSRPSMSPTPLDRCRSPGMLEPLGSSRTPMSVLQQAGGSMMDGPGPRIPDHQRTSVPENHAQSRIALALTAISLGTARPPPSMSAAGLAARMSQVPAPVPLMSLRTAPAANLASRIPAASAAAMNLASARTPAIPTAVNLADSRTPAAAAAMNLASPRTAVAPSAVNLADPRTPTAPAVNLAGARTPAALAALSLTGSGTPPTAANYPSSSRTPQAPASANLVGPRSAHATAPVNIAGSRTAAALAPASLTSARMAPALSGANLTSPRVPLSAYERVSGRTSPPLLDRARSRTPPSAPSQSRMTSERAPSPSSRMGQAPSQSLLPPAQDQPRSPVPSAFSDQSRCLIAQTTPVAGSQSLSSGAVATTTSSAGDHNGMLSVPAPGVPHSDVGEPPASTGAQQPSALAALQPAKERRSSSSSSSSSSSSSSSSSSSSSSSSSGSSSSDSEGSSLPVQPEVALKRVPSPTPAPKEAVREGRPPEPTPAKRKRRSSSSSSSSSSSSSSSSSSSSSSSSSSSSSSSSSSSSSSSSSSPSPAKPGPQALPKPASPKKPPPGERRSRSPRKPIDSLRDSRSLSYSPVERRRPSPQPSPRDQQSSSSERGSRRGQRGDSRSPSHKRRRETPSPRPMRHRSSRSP
# No constants are given. Whether binding was seen depends on the method and setting. In cells and extracts the contact can be indirect. Some results given as binding are weak or reduced against the parent protein; the word gives no strength. Tags and fused reporters may be left off the sequences shown.
# B1: DDX46 fused to the AP or the EX fragment of APEX2 (protein, UniProt Q7L014 1-1031)
# chain: MGRESRHYRKRSASRGRSGSRSRSRSPSDKRSKRGDDRRSRSRDRDRRRERSRSRDKRRSRSRDRKRLRRSRSRERDRSRERRRSRSRDRRRSRSRSRGRRSRSSSPGNKSKKTENRSRSKEKTDGGESSKEKKKDKDDKEDEKEKDAGNFDQNKLEEEMRKRKERVEKWREEQRKKAMENIGELKKEIEEMKQGKKWSLEDDDDDEDDPAEAEKEGNEMEGEELDPLDAYMEEVKEEVKKFNMRSVKGGGGNEKKSGPTVTKVVTVVTTKKAVVDSDKKKGELMENDQDAMEYSSEEEEVDLQTALTGYQTKQRKLLEPVDHGKIEYEPFRKNFYVEVPELAKMSQEEVNVFRLEMEGITVKGKGCPKPIKSWVQCGISMKILNSLKKHGYEKPTPIQTQAIPAIMSGRDLIGIAKTGSGKTIAFLLPMFRHIMDQRSLEEGEGPIAVIMTPTRELALQITKECKKFSKTLGLRVVCVYGGTGISEQIAELKRGAEIIVCTPGRMIDMLAANSGRVTNLRRVTYVVLDEADRMFDMGFEPQVMRIVDNVRPDRQTVMFSATFPRAMEALARRILSKPIEVQVGGRSVVCSDVEQQVIVIEEEKKFLKLLELLGHYQESGSVIIFVDKQEHADGLLKDLMRASYPCMSLHGGIDQYDRDSIINDFKNGTCKLLVATSVAARGLDVKHLILVVNYSCPNHYEDYVHRAGRTGRAGNKGYAYTFITEDQARYAGDIIKALELSGTAVPPDLEKLWSDFKDQQKAEGKIIKKSSGFSGKGFKFDETEQALANERKKLQKAALGLQDSDDEDAAVDIDEQIESMFNSKKRVKDMAAPGTSSVPAPTAGNAEKLEIAKRLALRINAQKNLGIESQDVMQQATNAILRGGTILAPTVSAKTIAEQLAEKINAKLNYVPLEKQEEERQDGGQNESFKRYEEELEINDFPQTARWKVTSKEALQRISEYSEAAITIRGTYFPPGKEPKEGERKIYLAIESANELAVQKAKAEITRLIKEELIRLQNSYQPTNKGRYKVL
# B2: DDX23 fused to the AP or the EX fragment of APEX2 (protein, UniProt Q9BUQ8 1-820)
# chain: MAGELADKKDRDASPSKEERKRSRTPDRERDRDRDRKSSPSKDRKRHRSRDRRRGGSRSRSRSRSKSAERERRHKERERDKERDRNKKDRDRDKDGHRRDKDRKRSSLSPGRGKDFKSRKDRDSKKDEEDEHGDKKPKAQPLSLEELLAKKKAEEEAEAKPKFLSKAEREAEALKRRQQEVEERQRMLEEERKKRKQFQDLGRKMLEDPQERERRERRERMERETNGNEDEEGRQKIREEKDKSKELHAIKERYLGGIKKRRRTRHLNDRKFVFEWDASEDTSIDYNPLYKERHQVQLLGRGFIAGIDLKQQKREQSRFYGDLMEKRRTLEEKEQEEARLRKLRKKEAKQRWDDRHWSQKKLDEMTDRDWRIFREDYSITTKGGKIPNPIRSWKDSSLPPHILEVIDKCGYKEPTPIQRQAIPIGLQNRDIIGVAETGSGKTAAFLIPLLVWITTLPKIDRIEESDQGPYAIILAPTRELAQQIEEETIKFGKPLGIRTVAVIGGISREDQGFRLRMGCEIVIATPGRLIDVLENRYLVLSRCTYVVLDEADRMIDMGFEPDVQKILEHMPVSNQKPDTDEAEDPEKMLANFESGKHKYRQTVMFTATMPPAVERLARSYLRRPAVVYIGSAGKPHERVEQKVFLMSESEKRKKLLAILEQGFDPPIIIFVNQKKGCDVLAKSLEKMGYNACTLHGGKGQEQREFALSNLKAGAKDILVATDVAGRGIDIQDVSMVVNYDMAKNIEDYIHRIGRTGRAGKSGVAITFLTKEDSAVFYELKQAILESPVSSCPPELANHPDAQHKPGTILTKKRREETIFA
# B3: DHX16 fused to the AP or the EX fragment of APEX2 (protein, UniProt O60231 1-1041)
# chain: MATPAGLERWVQDELHSVLGLSERHVAQFLIGTAQRCTSAEEFVQRLRDTDTLDLSGPARDFALRLWNKVPRKAVVEKPARAAEREARALLEKNRSYRLLEDSEESSEETVSRAGSSLQKKRKKRKHLRKKREEEEEEEASEKGKKKTGGSKQQTEKPESEDEWERTERERLQDLEERDAFAERVRQRDKDRTRNVLERSDKKAYEEAQKRLKMAEEDRKAMVPELRKKSRREYLAKREREKLEDLEAELADEEFLFGDVELSRHERQELKYKRRVRDLAREYRAAGEQEKLEATNRYHMPKETRGQPARAVDLVEEESGAPGEEQRRWEEARLGAASLKFGARDAASQEPKYQLVLEEEETIEFVRATQLQGDEEPSAPPTSTQAQQKESIQAVRRSLPVFPFREELLAAIANHQVLIIEGETGSGKTTQIPQYLFEEGYTNKGMKIACTQPRRVAAMSVAARVAREMGVKLGNEVGYSIRFEDCTSERTVLRYMTDGMLLREFLSEPDLASYSVVMVDEAHERTLHTDILFGLIKDVARFRPELKVLVASATMDTARFSTFFDDAPVFRIPGRRFPVDIFYTKAPEADYLEACVVSVLQIHVTQPPGDILVFLTGQEEIEAACEMLQDRCRRLGSKIRELLVLPIYANLPSDMQARIFQPTPPGARKVVVATNIAETSLTIEGIIYVLDPGFCKQKSYNPRTGMESLTVTPCSKASANQRAGRAGRVAAGKCFRLYTAWAYQHELEETTVPEIQRTSLGNVVLLLKSLGIHDLMHFDFLDPPPYETLLLALEQLYALGALNHLGELTTSGRKMAELPVDPMLSKMILASEKYSCSEEILTVAAMLSVNNSIFYRPKDKVVHADNARVNFFLPGGDHLVLLNVYTQWAESGYSSQWCYENFVQFRSMRRARDVREQLEGLLERVEVGLSSCQGDYIRVRKAITAGYFYHTARLTRSGYRTVKQQQTVFIHPNSSLFEQQPRWLLYHELVLTTKEFMRQVLEIESSWLLEVAPHYYKAKELEDPHAKKMPKKIGKTREELG
# B4: DHX38 fused to the AP or the EX fragment of APEX2 (protein, UniProt Q92620 1-1227)
# chain: MGDTSEDASIHRLEGTDLDCQVGGLICKSKSAASEQHVFKAPAPRPSLLGLDLLASLKRREREEKDDGEDKKKSKVSSYKDWEESKDDQKDAEEEGGDQAGQNIRKDRHYRSARVETPSHPGGVSEEFWERSRQRERERREHGVYASSKEEKDWKKEKSRDRDYDRKRDRDERDRSRHSSRSERDGGSERSSRRNEPESPRHRPKDAATPSRSTWEEEDSGYGSSRRSQWESPSPTPSYRDSERSHRLSTRDRDRSVRGKYSDDTPLPTPSYKYNEWADDRRHLGSTPRLSRGRGRREEGEEGISFDTEEERQQWEDDQRQADRDWYMMDEGYDEFHNPLAYSSEDYVRRREQHLHKQKQKRISAQRRQINEDNERWETNRMLTSGVVHRLEVDEDFEEDNAAKVHLMVHNLVPPFLDGRIVFTKQPEPVIPVKDATSDLAIIARKGSQTVRKHREQKERKKAQHKHWELAGTKLGDIMGVKKEEEPDKAVTEDGKVDYRTEQKFADHMKRKSEASSEFAKKKSILEQRQYLPIFAVQQELLTIIRDNSIVIVVGETGSGKTTQLTQYLHEDGYTDYGMIGCTQPRRVAAMSVAKRVSEEMGGNLGEEVGYAIRFEDCTSENTLIKYMTDGILLRESLREADLDHYSAIIMDEAHERSLNTDVLFGLLREVVARRSDLKLIVTSATMDAEKFAAFFGNVPIFHIPGRTFPVDILFSKTPQEDYVEAAVKQSLQVHLSGAPGDILIFMPGQEDIEVTSDQIVEHLEELENAPALAVLPIYSQLPSDLQAKIFQKAPDGVRKCIVATNIAETSLTVDGIMFVIDSGYCKLKVFNPRIGMDALQIYPISQANANQRSGRAGRTGPGQCFRLYTQSAYKNELLTTTVPEIQRTNLANVVLLLKSLGVQDLLQFHFMDPPPEDNMLNSMYQLWILGALDNTGGLTSTGRLMVEFPLDPALSKMLIVSCDMGCSSEILLIVSMLSVPAIFYRPKGREEESDQIREKFAVPESDHLTYLNVYLQWKNNNYSTIWCNDHFIHAKAMRKVREVRAQLKDIMVQQRMSLASCGTDWDIVRKCICAAYFHQAAKLKGIGEYVNIRTGMPCHLHPTSSLFGMGYTPDYIVYHELVMTTKEYMQCVTAVDGEWLAELGPMFYSVKQAGKSRQENRRRAKEEASAMEEEMALAEEQLRARRQEQEKRSPLGSVRSTKIYTPGRKEQGEPMTPRRTPARFGL
# B5: DHX8 fused to the AP or the EX fragment of APEX2 (protein, UniProt Q14562 1-1220)
# chain: MAVAVAMAGALIGSEPGPAEELAKLEYLSLVSKVCTELDNHLGINDKDLAEFVISLAEKNTTFDTFKASLVKNGAEFTDSLISNLLRLIQTMRPPAKPSTSKDPVVKPKTEKEKLKELFPVLCQPDNPSVRTMLDEDDVKVAVDVLKELEALMPSAAGQEKQRDAEHRDRTKKKKRSRSRDRNRDRDRDRERNRDRDHKRRHRSRSRSRSRTRERNKVKSRYRSRSRSQSPPKDRKDRDKYGERNLDRWRDKHVDRPPPEEPTIGDIYNGKVTSIMQFGCFVQLEGLRKRWEGLVHISELRREGRVANVADVVSKGQRVKVKVLSFTGTKTSLSMKDVDQETGEDLNPNRRRNLVGETNEETSMRNPDRPTHLSLVSAPEVEDDSLERKRLTRISDPEKWEIKQMIAANVLSKEEFPDFDEETGILPKVDDEEDEDLEIELVEEEPPFLRGHTKQSMDMSPIKIVKNPDGSLSQAAMMQSALAKERRELKQAQREAEMDSIPMGLNKHWVDPLPDAEGRQIAANMRGIGMMPNDIPEWKKHAFGGNKASYGKKTQMSILEQRESLPIYKLKEQLVQAVHDNQILIVIGETGSGKTTQITQYLAEAGYTSRGKIGCTQPRRVAAMSVAKRVSEEFGCCLGQEVGYTIRFEDCTSPETVIKYMTDGMLLRECLIDPDLTQYAIIMLDEAHERTIHTDVLFGLLKKTVQKRQDMKLIVTSATLDAVKFSQYFYEAPIFTIPGRTYPVEILYTKEPETDYLDASLITVMQIHLTEPPGDILVFLTGQEEIDTACEILYERMKSLGPDVPELIILPVYSALPSEMQTRIFDPAPPGSRKVVIATNIAETSLTIDGIYYVVDPGFVKQKVYNSKTGIDQLVVTPISQAQAKQRAGRAGRTGPGKCYRLYTERAYRDEMLTTNVPEIQRTNLASTVLSLKAMGINDLLSFDFMDAPPMETLITAMEQLYTLGALDDEGLLTRLGRRMAEFPLEPMLCKMLIMSVHLGCSEEMLTIVSMLSVQNVFYRPKDKQALADQKKAKFHQTEGDHLTLLAVYNSWKNNKFSNPWCYENFIQARSLRRAQDIRKQMLGIMDRHKLDVVSCGKSTVRVQKAICSGFFRNAAKKDPQEGYRTLIDQQVVYIHPSSALFNRQPEWVVYHELVLTTKEYMREVTTIDPRWLVEFAPAFFKVSDPTKLSKQKKQQRLEPLYNRYEEPNAWRISRAFRRR
# Biological target: SRSF1 fused to the AP or the EX fragment of APEX2 (split-APEX fusion) (UniProt Q07955)
# Assay: split reporter; split-APEX: AP and EX fusions co-transfected into HEK293T cells, both combinations of each pair; biotin tyramide 500 uM 30 min, H2O2 1 mM 1 min; cells lysed in 8 M urea; biotinylation detected by Western blotting with dye-labelled streptavidin
row,Molecule,binding
1,SRRM2 fused to the AP or the EX fragment of APEX2 (from UniProt Q9UQ35 1-2752),binds
2,B1,binds
3,B2,binds
4,B3,binds
5,B4,binds
6,B5,binds
